Measurements reported in PubChem BioAssay AID2685 (National Center for Advancing Translational Sciences (NCATS), 2010).
Some of the results follow. Further columns of the screen follow, without active or inactive calls. The list favours compounds with an active or inconclusive main result. The note in brackets gives the kind of curve behind each potency; many fits are weak.

Assay: qHTS Assay for Lipid Storage Modulators in Drosophila S3 Cells;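 on cell number change: cells counted by Cell Tracker Red CMTPX staining in the red channel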
Settings: BODIPY lipid droplet fluorescence, 18-24 h; for cell number change: measured here: cell count max response, cells fed with added oleic acid
From the text: NIH Molecular Libraries Probe Production Centers Network [MLPCN] NIH Chemical Genomics Center [NCGC] MLPCN Grant: 1 R03 MH085686-01 Assay Submitter (PI): Beller, Mathias; Max-Planck-Institut fur Biophysikalische Chemie NCGC Assay Overview: Storing lipids as a reservoir for energy or the anabolism of elementary metabolites is a common feature of probably all cells and is conserved from bacteria to humans. The universal cellular lipid storage organelle is the so-called lipid storage droplet (LD). Although ubiquitous, LDs share a simple structure composed of a hydrophobic core that harbors the storage lipids, which is shielded by a droplet-specific phospholipid monolayer to which proteins are attached. The current model of LD biogenesis involves an incorporation of the lipid core into the membrane leaflets of the endoplasmic reticulum (ER) followed by a subsequent budding-like maturation of a LD, which ultimately pinches off. Once released, LD volume can increase by localized lipogenesis or fusion of existing droplet. Storage lipids are re-mobilized enzymatically by lipase activity. Lipase regulation in the adipocyte is heavily studied and involves multiple components including catecholamine signaling, the LD-associated proteins Perilipin and comparative gene identification (CGI-58) and at least two lipases named hormone sensitive lipase (HSL) and adipocyte triglyceride lipase (ATGL). LD regulation outside of the adipocyte is poorly understood and only few components are known. However, there is an urgent need to learn more about ectopic fat depots as mislocalized storage of lipids, for example in the liver or muscle, is an eminent health problem associated with insulin resistance or the metabolic syndrome. We developed a laser-scanning cytometer assay to enable 1,536-well screening and combined the results of the small molecules screen with an RNAi database based on lipid storage.
Triacsin C (Sigma-Aldrich T-4540), an inhibitor of long-chain fatty acyl CoA synthetase that blocks synthesis of triglycerides, was used as a positive control for lipid under-storage. A total of 23 nL of compound solution of different concentrations were transferred to the assay plates using a Kalypsys pin tool equipped with a 1,536-pin array containing 10-nL slotted pins (FP1S10, 0.457-mm diameter, 50.8 mm long; V&P Scientific). One microliter of oleic acid (400 uM) was added, and the plate was lidded with stainless steel rubber gasket lined lids containing pinholes. […] Fluorescence was detected by excitation of the fluorophores with a 488-nm laser on an Acumen Explorer (TTP Lab Tech). The total intensity in channel 2 (500-530 nm) reflected lipid droplet accumulation. Cells were detected using channel 3 (575-640 nm) with 5-um width and 100-um depth filters. The ratio of the number of objects in PMT channel 2 over the number of objects in PMT channel 3 was also calculated. Percent activity was computed relative to an internal control (100% inhibited lipid droplet deposition due to the presence of 20 uM Triacsin C), which was added to 32 wells/plate.

[1] = measured here: lipid fluorescence (Fed channel) AC50, cells fed with added oleic acid
[2] = measured here: cell number channel AC50, cells fed with added oleic acid

Structure (SMILES)	cell number change	AC50 [1]	AC50 [2]
CCOC(=O)c1nnn(-c2nonc2N)c1CNc1ccc(C)c(Br)c1	-7.91%	29.1 µM [rising, partial curve, poor fit]	
CCCOc1ccc(NC(=O)CC2C(=O)N(CC)C(=S)N2CCCN2CCN(Cc3ccccc3)CC2)cc1 (stereo not drawn)	-57.3%	18.4 µM [falling, partial curve]	13 µM [falling, partial curve]
COc1ccccc1N1CCN(C(=O)c2cc3c(=O)n4cccc(C)c4nc3s2)CC1	7.08%	0.116 µM [falling, single point]	
CC1=C(C(N)=O)C(c2ccc3c(c2)OCO3)n2nc(-c3cccc(C)c3)nc2N1 (stereo not drawn)	29.8%	0.411 µM [rising, full curve, poor fit]	
O=C(Cn1c(=O)oc2ccccc21)Nc1ccc(Cl)cc1Cl	-3.28%	18.4 µM [rising, single point]	
CCN(CC)S(=O)(=O)c1cccc(-c2nnc(SCCOc3ccc(Cl)cc3)o2)c1	-2.4%		
CCn1c(CNC(=O)c2ccc3c(c2)OCO3)nnc1SCC(=O)Nc1ccccc1F	-4.27%	0.00461 µM [rising, full curve, poor fit]	
C=CCOC(=O)Nc1ccc(Cl)cc1NC(=O)OCC=C	5.36%	1.84 µM [rising, partial curve, poor fit]	6.51 µM [rising, single point]
Cc1cccc(-c2noc(CN(C)C(=O)c3ccc4c(c3)OCO4)n2)c1	7.08%		
CCc1cccc(CC)c1NC(=S)NCCc1c(C)[nH]c2ccccc12	-25.1%		3.66 µM [falling, full curve, poor fit]
CCOC(=O)C1CCCN(CC(=O)c2c[nH]c3ccc(C)cc23)C1 (stereo not drawn)	18.2%	1.64 µM [rising, partial curve]	
CC1CN(C2CCN(S(=O)(=O)Cc3ccccc3)CC2)CC(C)O1 (stereo not drawn)	1.86%	0.13 µM [falling, full curve, poor fit]	
COc1cccc(CN2CCC(Oc3ccc(C(=O)NCc4ccccn4)cc3)CC2)c1		6.51 µM [rising, single point]	
CC(C)/C=N/NC(=O)c1cc(Br)ccc1O	-10.1%	1.03 µM [falling, full curve, poor fit]	6.51 µM [rising, single point]
COc1ccccc1/C=C/CN1CCCC(CO)(Cc2cccc(Cl)c2)C1 (stereo not drawn)	-37.1%	32.6 µM [falling, single point]	32.6 µM [falling, single point]
Cn1c(CNS(=O)(=O)c2cccc(Cl)c2)cc(=O)n(C)c1=O	-27.4%		0.366 µM [falling, full curve, poor fit]
COc1cc(OC)cc(C(=O)O/N=C(\N)c2ccncc2)c1	8.38%	4.61 µM [rising, single point]	
O=[N+]([O-])c1cc(Br)c(O)c(/C=N/Nc2nnnn2-c2cccc3ccccc23)c1	-13.9%	0.13 µM [falling, full curve, poor fit]	
Cn1nc(-c2ccccc2)c(/C=N/O)c1Cl	5.19%		
CCn1c(SCC(=O)N2CCN(c3ccccc3)CC2)nnc1-c1cc2cc(Cl)ccc2o1	-15.9%	6.51 µM [rising, single point]	

Structure (SMILES)	cell number change	AC50 [1]	AC50 [2]
CCOc1ccccc1C(=O)Nc1ccc(S(=O)(=O)N2CCN(C)CC2)cc1	-6.32%	29.1 µM [falling, single point]	
CC1CC(NC(=O)c2cc3c(=O)n4ccccc4nc3n2C)CC(C)(C)C1 (stereo not drawn)		11.6 µM [falling, partial curve]	
COc1ccc(F)cc1C(=O)COC(=O)c1n[nH]c(=O)c2ccccc12	-6.01%	1.3 µM [rising, full curve]	
COC(=O)C1C(c2ccccc2)C=CC(c2ccccc2)C1C(=O)O (stereo not drawn)	-17.2%	13 µM [falling, single point]	
CCOC(=O)C1CCN(C(=O)c2cccc(S(=O)(=O)Nc3ccc(C)cc3C)c2)CC1			6.51 µM [rising, single point]
N#C/C(=C\c1cccs1)C(=O)c1ccccc1Cl	-59.7%	25.9 µM [falling, partial curve]	29.1 µM [falling, single point]
Cc1nnsc1C(=O)Nc1cccc(Cl)c1C	26.5%	13 µM [rising, partial curve, poor fit]	
OC(CNC1Cc2ccccc2C1)COc1ccc(F)cc1 (stereo not drawn)	61.7%		29.1 µM [rising, single point]
CCOC(=O)c1c(C)[nH]c(C)c1C(=O)COC(=O)c1ccc(OC)c(OC)c1	31.6%		
COc1ccc(Br)cc1/C=C/c1ccc2cccc(O)c2n1	-10.6%	3.66 µM [falling, full curve]	
COC1(C)CC2C(CC1OC(=O)c1cc([N+](=O)[O-])cc([N+](=O)[O-])c1)C2(C)C (stereo not drawn)	-34.7%	20.6 µM [falling, single point]	1.46 µM [falling, partial curve, poor fit]
CN(C)c1ccc(C(C(=O)NCC2CCCO2)N(C(=O)c2snc(C(N)=O)c2N)c2ccc3c(c2)OCO3)cc1 (stereo not drawn)	19.6%	0.411 µM [rising, single point]	
CNC(=O)CSc1nnc(CCc2ccccc2)n1-c1ccccc1	-14.9%	18.4 µM [rising, single point]	
CC1CCN(S(=O)(=O)N2CCC(C(=O)NCCN3CCOCC3)CC2)CC1	14%	3.26 µM [falling, single point]	
O=C(CCc1n[nH]c(=O)[nH]c1=O)N1CCOCC1	-82.7%	29.1 µM [falling, partial curve, poor fit]	5.8 µM [falling, full curve]
Cc1ccc(S(=O)(=O)c2nc(S(C)(=O)=O)sc2NCC2CCCO2)cc1 (stereo not drawn)	7.82%		
CCn1c(=O)n(CC)c2cc(N3CCCC3)c(NC(=O)c3cc(Cl)ccc3OC)cc21		4.11 µM [falling, full curve]	
CCCCOC(=O)Cc1c(O)c2ccccc2[nH]c1=O	-9.65%	29.1 µM [falling, single point]	
CC(Cc1cccs1)NC(=O)Nc1cccc(Cl)c1 (stereo not drawn)	-12.9%		
COc1ccc(NC(=O)N2CCC(c3nc4ccccc4[nH]3)CC2)cc1	5.56%	0.651 µM [falling, single point]	0.731 µM [falling, single point]

As entered above:
Under cell number change, CNC(=O)CSc1nnc(CCc2ccccc2)n1-c1ccccc1 shows -14.9%
Under cell number change, CC1CCN(S(=O)(=O)N2CCC(C(=O)NCCN3CCOCC3)CC2)CC1 shows 14%
Under cell number change, OC(CNC1Cc2ccccc2C1)COc1ccc(F)cc1 (stereo not drawn) shows 61.7%

Remaining list, next part.

Structure (SMILES)	cell number change	AC50 [1]	AC50 [2]
CC(=O)Oc1ccccc1/C=C/c1nc2ccccc2c(=O)o1	24.7%	5.17 µM [rising, partial curve, poor fit]	
O=C(CC1Oc2ccccc2NC1=O)NCCCN1CCOCC1 (stereo not drawn)	-19.9%	0.00461 µM [falling, full curve, poor fit]	
CCCC(C)(C)NC(=O)CCCCC(=O)NC(C)(C)CCC	-14.8%	25.9 µM [falling, single point]	
COc1cccc(C(C(=O)NC(C)(C)C)N(C(=O)CCC(=O)Nc2cc(C)on2)c2ccc3c(c2)OCCO3)c1OC (stereo not drawn)	15.8%		
N#Cc1cccc(NS(=O)(=O)c2ccccc2Cl)c1	5.55%	16.4 µM [rising, single point]	6.51 µM [rising, single point]
CCOC(=O)c1c(S(=O)(=O)N2CCN(c3ccc(C(C)=O)cc3)CC2)c(C)n(C)c1C		6.51 µM [falling, single point]	
FC(F)(F)c1ccccc1NC(=S)N1CCCCCC1	-3.18%	5.8 µM [rising, single point]	
Cc1ccc(-n2c(-c3ccccc3)cc(/C=N/NC(=O)CC#N)c2-c2ccccc2)cc1	15.3%		0.00461 µM [rising, full curve, poor fit]
COc1cccc(C2c3[nH]c4ccccc4c3C[C@H]3C(=O)N(CCCOC(C)C)CC(=O)N23)c1 (stereo partly drawn)	38.7%		2.59 µM [rising, single point]
COC(=O)c1ccc(C2C(Oc3ccc(OC)cc3)C(=O)N2CCc2ccc(OC)c(OC)c2)cc1 (stereo not drawn)	3.49%	32.6 µM [falling, single point]	
Cc1nn(C)c(C)c1S(=O)(=O)N1CCC(CO)(Cc2ccc(Cl)cc2)CC1	-18.1%	29.1 µM [falling, single point]	
O=C(CN1CCOCC1)N/N=C/c1ccc(-c2ccc(C(=O)O)cc2)o1	-13.7%		
CC1CCCC(C)N1C(=O)Cn1nnc(-c2ccc([N+](=O)[O-])cc2)n1 (stereo not drawn)	-14.6%	4.61 µM [falling, single point]	
O=C(Nc1c(C(=O)NCc2ccco2)cnn1-c1ccccc1)c1cccc(F)c1	-9.73%		
COc1ccccc1NC(=O)CN1C(=O)C(C)Oc2ccccc21 (stereo not drawn)	-3.23%	0.116 µM [rising, full curve]	
COC(=O)c1ccc(COC(=O)c2cccn2C)o1	20.7%	4.11 µM [rising, full curve]	0.0291 µM [rising, full curve, poor fit]
CSc1nsc(SCC(=O)NCc2ccc(C)cc2)n1	-10.1%		
Clc1ccc(SCCOCCN2CCc3ccccc3C2)cc1	-52%	0.92 µM [falling, full curve, poor fit]	29.1 µM [falling, single point]
CC(C)(C)C(=O)CSc1nnc(-c2cccs2)n1CC1CCCO1 (stereo not drawn)			0.146 µM [falling, full curve, poor fit]
